The results in this text go back to publication PMC5931107, “Clinical pharmacodynamic/exposure characterisation of the multikinase inhibitor ilorasertib (ABT-348) in a phase 1 dose-escalation trial” (British Journal of Cancer, 2018).

“Also recorded” adds a separate entry of the source.

Assay type in all cases: in vivo, human
Data set [1] concerns VEGFR2. The data set can be described thus: Diastolic blood pressure change from baseline (VEGFR2 inhibition biomarker). Conditions: quintiles of exposure (Cmax).
Data set [2] deals with VEGFR2. The data set can be described thus: Plasma PlGF change from baseline (VEGFR2 inhibition biomarker). The conditions noted are these: quintiles of exposure (Cmax).
The subject of another data set is Aurora kinase B. The data set can be described thus: pHH3 immunohistochemistry in skin punch biopsies. The conditions noted are these: exposure quintiles.

On to `Nc1ncc(-c2cnn(CCO)c2)c2scc(-c3ccc(NC(=O)Nc4cccc(F)c4)cc3)c12` [ilorasertib, Ilorasertib], for which, in the data set on VEGFR2 [1], the “Exposure at peak change in DBP” value was “second quintile of exposure; also recorded: second plasma exposure quintile”. Besides, the “Exposure at peak change in PlGF” value in the data set on VEGFR2 [2] is given as “second quintile of exposure; also recorded: second plasma exposure quintile”. In addition, in the data set on Aurora kinase B, the “Exposure at maximum pHH3 inhibition” value is “at the highest exposure; also recorded: only in the two highest quintiles”.
